Results published in PubChem BioAssay AID504834 (National Center for Advancing Translational Sciences (NCATS), 2011).
The whole screen tested about 320,000 compounds, of which about 22,000 (6.9%) were called active. The inconclusive results got no clear call from the source; some entries with a clear call stand among them for comparison. Calls follow the shape of the dose curve; as a rule, active = well fitted inhibition curve with a large enough effect; inconclusive = small, poorly fitted or top-dose-only effect, or another doubt; inactive = no such curve, though single readings can be large or run the other way. Potencies beside an inconclusive call are fits to weak or partial responses and may not hold up.

Assay: Primary qHTS for delayed death inhibitors of the malarial parasite plastid, 96 hour incubation
Settings: P. falciparum luciferase reporter growth; series mostly up to 28.7 µM
Procedure, shortened: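 Parasite growth measured via integrated firefly luciferase reporter in P. falciparum. Infected erythrocytes at 2% hematocrit, 0.05% parasitemia final were treated 96 hours at 37 C under 5% CO2, and luminescence was read.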
Potency is read from the fitted curve at half-maximal effect.

Question: With `CCOc1ccc(NC(=O)CSc2nc(O)c(C)c(=O)n2-c2ccc(F)cc2)cc1` as the compound, how does the Potency read?
Answer: The Potency was inconclusive: 11.7 µM [inhibitor, partial curve].

Question: Which Potency does the source give for `CCOC(=O)c1ccc(NCc2ccc(N(C)C)cc2)cc1` here?
Answer: The Potency was inconclusive: 6.57 µM [inhibitor, partial curve, poor fit].

Question: With `CSCC(=O)N1CCC(n2nccc2NC(=O)c2ccc3c(c2)OCO3)CC1` as the compound, how does the Potency read?
Answer: Its Potency is inconclusive: 7.38 µM [inhibitor, partial curve, poor fit].

Question: Which Potency does the source give for `COc1ccc(S(=O)(=O)N(C)CC(=O)NC2CCCC2)cc1OC` here?
Answer: The Potency was inconclusive: 0.465 µM [inhibitor, full curve, poor fit].

Question: Which Potency does the source give for `CC(=O)O[C@@H]1C[C@H]2C(C)(C)C(=O)C=C[C@]2(C)[C@H]2CC[C@@]3(C)[C@H](c4ccoc4)OC(=O)[C@H]4O[C@]43[C@@]21C` here?
Answer: Its Potency is active: 3.29 µM.

Question: For `CN(O)/C=N/C(=S)Nc1ccc(Cl)cc1Cl`, which Potency is on record?
Answer: Its Potency is “inactive”.

Question: With `C=CCn1c(O)c(CN2CCOCC2)c(C)c(C#N)c1=O` as the compound, how does the Potency read?
Answer: Its Potency is inconclusive: 0.294 µM [inhibitor, full curve, poor fit].

Question: For `Cc1ccc(Cn2c(-n3nc(C)cc3C)nc3c2c(=O)[nH]c(=O)n3C)cc1`, which Potency is on record?
Answer: Its Potency is “inactive”.

Question: For `COc1cc(Br)c(/C=C/c2ccc3cccc(O)c3n2)cc1OC`, which Potency is on record?
Answer: Its Potency is active: 2.08 µM.

Question: For `C=CCN(CC=C)S(=O)(=O)c1ccc(NC(=S)NC(=O)/C=C/c2ccc(C)cc2)cc1`, which Potency is on record?
Answer: The Potency was inconclusive: 18.5 µM [inhibitor, single point].

Question: Which Potency does the source give for `CCCCN(Cc1nc2ccccc2c(=O)[nH]1)C(=O)CN1C(=O)NC2(CCCCC2)C1=O` here?
Answer: The Potency was inconclusive: 13.1 µM [inhibitor, single point].

Question: For `CCOC(=O)c1c(C)c(C(=O)N2CCN(c3ccccc3)CC2)c(C)n1C`, which Potency is on record?
Answer: Its Potency is inconclusive: 2.08 µM [inhibitor, partial curve, poor fit].

Question: With `Cc1c(S(=O)(=O)Nc2ccc3c(c2)OCCO3)cnn1C` as the compound, how does the Potency read?
Answer: The Potency was inconclusive: 3.29 µM [inhibitor, partial curve, poor fit].

Question: With `CCCCN(C)CCNC(=O)c1ccc(Cn2c(=S)[nH]c3ccc(Br)cc3c2=O)cc1` as the compound, how does the Potency read?
Answer: Its Potency is active: 10.4 µM.

Question: For `COCCCNC(=O)c1ccc2c(=O)n(Cc3ccccc3OC)c(=S)[nH]c2c1`, which Potency is on record?
Answer: The Potency was “inactive”.

Question: For `O=C(CSCc1ccc(Cl)cc1)Nc1ccc(S(=O)(=O)N2CCOCC2)cc1`, which Potency is on record?
Answer: The Potency was inconclusive: 11.7 µM [inhibitor, partial curve].

Question: Which Potency does the source give for `c1cncc(-c2nc(N3CCOCC3)c3c4c(sc3n2)CCC4)c1` here?
Answer: Its Potency is inconclusive: 1.31 µM [inhibitor, single point].

Question: With `CC1(C)CC(NCc2ccccc2)CCO1` (centres undefined) as the compound, how does the Potency read?
Answer: The Potency was inconclusive: 13.1 µM [inhibitor, single point].

Question: Which Potency does the source give for `O=C1CC(=O)N(c2ccccc2)C(=O)N1c1ccccc1` here?
Answer: The Potency was inconclusive: 18.5 µM [inhibitor, single point].

Question: For `Cc1[nH]c(C)c2c(=O)n(-c3ccccc3)ncc12`, which Potency is on record?
Answer: Its Potency is inconclusive: 11.7 µM [inhibitor, partial curve, poor fit].

Question: For `Cn1c(-c2ccncc2)nc2ccccc21`, which Potency is on record?
Answer: The Potency was inconclusive: 18.5 µM [inhibitor, single point].

Question: Which Potency does the source give for `COc1ccccc1NC(=O)CSc1ccc(-c2ccco2)nn1` here?
Answer: Its Potency is inconclusive: 18.5 µM [inhibitor, single point].

Question: With `CCC(C)NC(=O)CSC1=Nc2ccccc2C2=NC(CC(=O)NCc3ccc(F)cc3)C(=O)N12` (centres undefined) as the compound, how does the Potency read?
Answer: Its Potency is inconclusive: 1.65 µM [inhibitor, full curve, poor fit].

Question: For `N#Cc1cnc(NN)nc1`, which Potency is on record?
Answer: Its Potency is inconclusive: 0.104 µM [inhibitor, full curve, poor fit].

Question: Which Potency does the source give for `COc1ccc(NC(=O)Nc2cc3oc4ccccc4c3cc2OC)cc1` here?
Answer: Its Potency is inconclusive: 5.22 µM [inhibitor, partial curve, poor fit].

Question: With `CCN1C(=O)[C@H]2[C@H]3[C@H](O)[C@H](O)C/C(=N\OC[C@@H](C)[C@H](OCc4ccccc4)C(C)C)[C@@H]3CC[C@H]2C1=O` as the compound, how does the Potency read?
Answer: The Potency was inconclusive: 18.5 µM [inhibitor, single point].

Question: With `COC(=O)C1=C(c2ccccc2OCc2ccccc2)C[C@@H]2CC[C@H]1N2C(=O)NCc1ccc(C(F)(F)F)cc1` as the compound, how does the Potency read?
Answer: Its Potency is inconclusive: 1.85 µM [inhibitor, full curve].

Question: For `COCCSc1nnc(NC(=O)c2cc(C(=O)OC)cc([N+](=O)[O-])c2)s1`, which Potency is on record?
Answer: Its Potency is “inactive”.

Question: Which Potency does the source give for `Cc1cc(C)c(C#N)c(Nc2ccc(F)cc2)n1` here?
Answer: The Potency was inconclusive: 18.5 µM [inhibitor, single point].

Question: Which Potency does the source give for `CN(C)CCN(C(=O)c1ccc2c(c1)OCCO2)c1nc2cc3c(cc2s1)OCO3` here?
Answer: Its Potency is “inactive”.

Question: Which Potency does the source give for `CCN(CCO)c1nc(SC)nc2c1sc1nc(-c3ccco3)c3c(c12)CCC3` here?
Answer: The Potency was inconclusive: 0.415 µM [inhibitor, full curve, poor fit].

Question: With `CCn1cc(C(=O)Nc2ccc3c(c2)OCCO3)c2cc(OC)c(OC)cc2c1=O` as the compound, how does the Potency read?
Answer: The Potency was inconclusive: 11.7 µM [inhibitor, single point].

Question: Which Potency does the source give for `Cc1ccnc(NC(=O)C2CCCN(S(=O)(=O)c3cnc[nH]3)C2)c1` (centres undefined) here?
Answer: The Potency was inconclusive: 0.928 µM [inhibitor, partial curve, poor fit].

Question: Which Potency does the source give for `CN(C)S(=O)(=O)N1CCC(Oc2ccc(C(=O)NCC(C)(C)CO)cc2)CC1` here?
Answer: Its Potency is active: 1.65 µM.

Question: Which Potency does the source give for `O=C(CSc1nnc(-c2c[nH]c3ccccc23)o1)N(Cc1ccccc1)c1ccc(F)cc1` here?
Answer: The Potency was inconclusive: 9.28 µM [inhibitor, partial curve].

Question: For `COc1cccc(/C=C2\SC(=S)N(CCC(=O)NCCc3ccc(O)cc3)C2=O)c1`, which Potency is on record?
Answer: Its Potency is inconclusive: 18.5 µM [inhibitor, single point].

Question: With `CC1(C)CC(=O)c2cc(C(=O)N3CCN(CCO)CC3)c(=O)n(-c3ccc(Cl)cc3)c2C1` as the compound, how does the Potency read?
Answer: The Potency was inconclusive: 10.4 µM [inhibitor, single point].

Question: For `CC(=O)Nc1ccc(S(=O)(=O)N2CCc3cc4c(cc3C2C)OCCCO4)cc1` (centres undefined), which Potency is on record?
Answer: The Potency was inconclusive: 2.62 µM [inhibitor, full curve, poor fit].

Question: For `CCOc1ccc(S(=O)(=O)n2cnc(C)c2)cc1`, which Potency is on record?
Answer: The Potency was “inactive”.

Question: For `CC1=C(C#N)C(c2cccnc2)C2=C(CC(c3ccc(Cl)cc3)CC2=O)N1` (centres undefined), which Potency is on record?
Answer: Its Potency is active: 6.57 µM.

Question: For `COc1ccc2c(c1)C(c1ccccc1)=NNC(c1ccco1)=N2`, which Potency is on record?
Answer: The Potency was inconclusive: 10.4 µM [inhibitor, partial curve].

Question: For `CCOc1ccc(CCNC(=O)c2cc3sccc3n2CC)cc1OCC`, which Potency is on record?
Answer: The Potency was “inactive”.

Question: With `Cc1ccccc1N1CC(=O)Nc2c(oc3nc(-c4ccccc4)cc(C)c23)C1=O` as the compound, how does the Potency read?
Answer: Its Potency is inconclusive: 18.5 µM [inhibitor, single point].

Question: For `COc1ccc(N2C(=O)CC(Nc3ccc(N4CCOCC4)cc3)C2=O)c(OC)c1` (centres undefined), which Potency is on record?
Answer: The Potency was “inactive”.

Question: Which Potency does the source give for `Cc1onc(-c2ccccc2)c1CNC(=O)Nc1cccc(Cl)c1` here?
Answer: Its Potency is active: 9.28 µM.

Question: With `CC(=O)C1C(=O)CC(C)(O)C(C(C)=O)C1c1ccccc1` (centres undefined) as the compound, how does the Potency read?
Answer: Its Potency is “inactive”.

Question: Which Potency does the source give for `CCOC(=O)CSc1nnc(CSc2nc3ccccc3c(=O)[nH]2)n1-c1ccccc1` here?
Answer: The Potency was inconclusive: 6.57 µM [inhibitor, partial curve, poor fit].

Question: Which Potency does the source give for `N#Cc1c(N)n(CCOC(=O)c2cccc([N+](=O)[O-])c2)c2nc3ccccc3nc12` here?
Answer: The Potency was active: 8.28 µM.

Question: Which Potency does the source give for `CC1CCN(C(=O)c2ccc3c(c2)NC(=O)CN3)CC1` here?
Answer: Its Potency is “inactive”.

Question: Which Potency does the source give for `Cc1nc2ccc(S(=O)(=O)N(C)CC(=O)NCc3ccc4c(c3)OCO4)cc2s1` here?
Answer: Its Potency is inconclusive: 18.5 µM [inhibitor, single point].

Question: With `CCCCc1cc2c(cn1)=C(OC(=O)c1cnc3ccccc3n1)C(C)(OC(=O)CC)C(=O)C=2` (centres undefined) as the compound, how does the Potency read?
Answer: The Potency was inconclusive: 18.5 µM [inhibitor, single point].

Question: For `CCC(CC)C1C(C#N)=C(N)Oc2c1c(=O)oc1ccccc21` (centres undefined), which Potency is on record?
Answer: The Potency was inconclusive: 13.1 µM [inhibitor, single point].

Question: With `CC(=O)NCCNC(=O)c1ccc(Sc2ccccc2)c([N+](=O)[O-])c1` as the compound, how does the Potency read?
Answer: Its Potency is “inactive”.

Question: For `O=[N+]([O-])c1ccc2nc(CCCO)[nH]c2c1`, which Potency is on record?
Answer: Its Potency is inconclusive: 5.86 µM [inhibitor, single point].

Question: Which Potency does the source give for `CC1CCN(C(=O)c2ccc(S(=O)(=O)Cc3cccc(F)c3)c([N+](=O)[O-])c2)CC1` here?
Answer: The Potency was inconclusive: 0.37 µM [inhibitor, full curve, poor fit].

Question: For `O=C(Cc1coc2ccc3ccccc3c12)Nc1nnc(C2CC2)s1`, which Potency is on record?
Answer: Its Potency is inconclusive: 4.15 µM [inhibitor, single point].

Question: With `O=C(COC(=O)c1cccnc1Nc1cccc(C(F)(F)F)c1)NCCN1C(=O)CSC1=O` as the compound, how does the Potency read?
Answer: The Potency was inconclusive: 10.4 µM [inhibitor, single point].

Question: Which Potency does the source give for `CC[C@H](C)[C@@H](C(=O)NCCCCCCCCCCC(=O)N1CCNCC1)n1cc(CCCCN=C(N)N)nn1` here?
Answer: Its Potency is active: 2.33 µM.

Question: For `COc1ccc(CCNC(=O)c2cn3ccc(C)cc3n2)cc1OC`, which Potency is on record?
Answer: The Potency was inconclusive: 10.4 µM [inhibitor, single point].

Question: Which Potency does the source give for `CCN(CC)C(=O)CSc1nc2c(sc(=S)n2-c2ccccc2)c(=O)n1-c1ccc(OC)c(OC)c1` here?
Answer: The Potency was “inactive”.

Question: Which Potency does the source give for `COc1ccc(Nc2nc3ccc(C)cn3c(=O)c2/C=N/O)cc1` here?
Answer: Its Potency is inconclusive: 11.7 µM [inhibitor, single point].

Question: For `CCN(CC)c1ccc(C=C2C(=O)OC(C)(C(C)(C)C)OC2=O)cc1` (centres undefined), which Potency is on record?
Answer: Its Potency is inconclusive: 0.165 µM [inhibitor, full curve, poor fit].

Question: Which Potency does the source give for `CC(C)[C@@H](C(=O)NC1CCCC1)N1C(=O)N2CCc3c([nH]c4ccccc34)[C@@]2(C)C1=O` here?
Answer: The Potency was inconclusive: 20.8 µM [inhibitor, single point].

Question: With `Cc1ccc2[nH]c3c(=O)n(CC(=O)NCCCN(C)Cc4ccccc4)ncc3c2c1` as the compound, how does the Potency read?
Answer: Its Potency is inconclusive: 5.22 µM [inhibitor, partial curve].
